# Some of the results follow. These are further read-outs of the screen, such as a control signal, another cell line or another target. No call is given for them. The list favours compounds with an active or inconclusive main result. Potencies come from curve fits of mixed quality, noted in brackets.
# Test: qHTS Assay for Lipid Storage Modulators in Drosophila S3 Cells;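 for cell number change: cells counted by Cell Tracker Red CMTPX staining in the red channel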
# Conditions: BODIPY lipid droplet fluorescence, 18-24 h; for cell number change: measured here: cell count max response, cells fed with added oleic acid
# Procedure, shortened: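 Drosophila S3 cells loaded with oleic acid (400 uM, as added) and compounds at several concentrations; lipid droplets imaged by 488-nm laser-scanning cytometry, 500–530 nm intensity and object ratio to cell channel. Percent activity normalized to 20 uM Triacsin C.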
# [1] = measured here: cell number channel AC50, cells fed with added oleic acid
# [2] = measured here: lipid fluorescence (Fed channel) AC50, cells fed with added oleic acid
Compound,cell number change [%],AC50 [1],AC50 [2]
CS(=O)(=O)c1ccc(Cl)c(NC(=O)CN2CCCC2c2ccc3c(c2)OCCCO3)c1 (centres undefined),30.2,"20.6 µM [rising, single point]","25.9 µM [rising, single point]"
CCN(CC(=O)Nc1c(F)cccc1F)C(=O)c1nc2nc(C)cc(C)n2n1,-2.14,–,"0.092 µM [falling, full curve, poor fit]"
COc1ccc(CCNC(=O)COC(=O)COc2c(C)cc(C)cc2C)cc1OC,-5.25,–,"4.11 µM [falling, partial curve]"
Cc1ccc(C)c(NC(=O)c2ccc3ccccc3n2)c1,136,"0.366 µM [rising, full curve]","0.411 µM [rising, full curve]"
CCNC(=S)N(CCN(CC)CC)Cc1cc2cc3c(cc2[nH]c1=O)OCO3,36.5,"32.6 µM [rising, partial curve, poor fit]","6.51 µM [rising, single point]"
COc1cc(CNc2ccc(CNc3ncn[nH]3)cc2)ccc1OCc1ccccc1,-30.9,"16.4 µM [falling, single point]",–
COc1cc(N=C2C(=O)N3c4c(cccc42)C(C)=CC3(C)C)cc(OC)c1,-11.7,–,"29.1 µM [falling, single point]"
O=C(NC(=S)NC1CCCCCC1)c1cncc(Br)c1,19.2,–,"5.8 µM [rising, full curve]"
CC(=O)c1cccc(NC(=O)COC(=O)COc2ccc(Cl)cc2)c1,20.5,–,"0.082 µM [rising, full curve, poor fit]"
COCCN(C(=O)COC(=O)c1ccc(Cl)s1)c1c(N)n(Cc2ccccc2)c(=O)[nH]c1=O,2.56,–,–
COCCN(CCOC)Cc1c(C)[nH]c2c(C)c(C)ccc2c1=O,-35.2,"25.9 µM [falling, single point]","25.9 µM [falling, single point]"
Cc1ccc(NC(=O)CSCC(=O)N2CCN(c3cccc(C(F)(F)F)c3)CC2)cc1,1.47,–,"29.1 µM [falling, single point]"
COc1cc(CC(=O)OCC(=O)N2CC(C)CC(C)C2)cc(OC)c1OC (centres undefined),-24.6,"2.06 µM [falling, full curve, poor fit]","6.51 µM [falling, single point]"
NNC(=O)/C=C/c1ccc(Cl)cc1Cl,56.2,"29.1 µM [rising, single point]","0.461 µM [rising, full curve, poor fit]"
Cc1cc(C)n(C(=O)Cn2nc([N+](=O)[O-])cc2C)n1,7.52,–,–
CC(C)(C)n1ncc2c(=O)n(CC(=O)Nc3ccccc3)cnc21,9.82,–,"29.1 µM [rising, single point]"
CC(C)Cc1nnc(NC(=O)CCC(=O)N2CCN(c3ccccc3)CC2)s1,11.6,"8.2 µM [rising, partial curve, poor fit]",–
Cc1ccc2c(COC(=O)C34CC5CC(CC(C5)C3)C4)cc(=O)oc2c1,0.489,–,"0.103 µM [rising, full curve, poor fit]"
CN(C)/C=C/C(=O)c1ccc(F)cc1,-23.1,–,"29.1 µM [falling, single point]"
COc1cccc(OC)c1C(=O)OCC(=O)NC1CCCCCC1,-29.9,–,"0.731 µM [falling, full curve]"
O=c1[nH]c2ccccc2nc1/C=C/c1ccccc1,-16.5,–,"32.6 µM [falling, single point]"
O=C(CN1CCCC1)NCC12CC3CC(CC(C3)C1)C2,31.2,"32.6 µM [rising, single point]",–
CCC(=O)Oc1ccc(C(=O)Nc2ccc([N+](=O)[O-])cc2)cc1,11,–,–
N#CCCN(Cc1cccnc1)C(=S)Nc1ccccc1Cl,–,"6.51 µM [rising, single point]","0.731 µM [rising, full curve]"
COc1ccc(S(N)(=O)=O)cc1C(=O)NNC(=O)CN(C)S(=O)(=O)c1ccc(Cl)cc1,-20.7,–,"3.26 µM [falling, partial curve, poor fit]"
CCOc1cc(C(c2c(C)[nH][nH]c2=O)c2c(C)[nH][nH]c2=O)ccc1O,8.93,–,"14.6 µM [falling, partial curve]"
COc1cccc(C2C(C#N)=C(N)OC(C(C)(C)C)=C2C#N)c1 (centres undefined),-35.1,"7.31 µM [falling, partial curve]",–
CC(C)NC(=O)CN(C(=O)CCC(=O)Nc1ccccn1)c1ccc(F)c(Cl)c1,-9.15,–,–
N#Cc1ccccc1NC(=O)c1ccccc1OCC(=O)NCc1ccco1,–,–,"6.51 µM [rising, partial curve, poor fit]"

# Already shown: two of the compounds above.
Compound,cell number change [%],AC50 [1],AC50 [2]
COCCN(C(=O)COC(=O)c1ccc(Cl)s1)c1c(N)n(Cc2ccccc2)c(=O)[nH]c1=O,2.56,–,–
COCCN(CCOC)Cc1c(C)[nH]c2c(C)c(C)ccc2c1=O,-35.2,"25.9 µM [falling, single point]","25.9 µM [falling, single point]"

# Reference: PubChem BioAssay AID2685 (National Center for Advancing Translational Sciences (NCATS), 2010)
